# PubChem BioAssay AID720505, Drosophila RNAi Screening Center | 2013
# Assay: 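Genes needed for store-operated calcium entry in fly cells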 (primary screen)
# Cell system: Drosophila S2R+ cells
# Reagents: long dsRNA against Drosophila genes
# Treatment: thapsigargin (2 µM) in calcium-free buffer to empty internal stores, then 2 mM calcium added back
# Measured: 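Stores emptied by 2 µM thapsigargin without calcium, then 2 mM calcium re-added; fluo-4 fluorescence followed by FLIPR in 384-well plates, per-well averaged endpoint, raw; two screen passes, some wells retested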
# Direction: calcium signal and retest calcium signal: higher = more calcium entry after store depletion
# Active means: 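About 1500 genes called as lowering calcium entry, by varying amounts, judged against per-plate control wells with STIM1 as positive and Rho1 as negative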
# Calls: active = called as lowering calcium entry; inactive = not called
# The deposit covers about 20,000 reagents; below is a random part of those with a known target gene and a result. Over the whole deposit, about 2,100 (10%) were called active. 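Raw plate signals without normalisation; calls rest on control-based scores that were not deposited; replicate 2 separates called from uncalled poorly.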 Entries without a mark were called inactive. Names joined by + are all predicted targets of the reagent. The record does not give: the amount of reagent, the time to read-out.
The opening 5 records as a preview:
Gene,PubChem SID,"calcium signal, replicate 1","calcium signal, replicate 2","retest calcium signal, replicate 1","retest calcium signal, replicate 2"
Spn27A (GeneID 45815),SID104183400,131,114,,
asRNA:CR31514 + CG12947,SID104194367,148,86.7,,
MESR3 (GeneID 35116),SID104182255,68.1,95,,
Gdi (GeneID 34264),SID104183122,71.2,106,,
CG11251 (GeneID 39490),SID104189617,111,121,,

The list itself, from the first entry:
Gene,PubChem SID,"calcium signal, replicate 1","calcium signal, replicate 2","retest calcium signal, replicate 1","retest calcium signal, replicate 2"
Spn27A (GeneID 45815),SID104183400,131,114,,
asRNA:CR31514 + CG12947,SID104194367,148,86.7,,
MESR3 (GeneID 35116),SID104182255,68.1,95,,
Gdi (GeneID 34264),SID104183122,71.2,106,,
CG11251 (GeneID 39490),SID104189617,111,121,,
Rpt5 (GeneID 42805),SID104196634,124,136,,
Pfdn6 (GeneID 40176),SID104190707,101,102,,
Elp4 (GeneID 33775),SID104182791,91.2,103,,
rux (GeneID 31535),SID104198621,145,131,,
CG4942 (GeneID 39044),SID104190254,142,110,,
mop (GeneID 39610),SID104190857,90.6,106,,
Setx (GeneID 38904),SID104190651,76.4,79.6,,
CG31910 + snoRNA:Me28S-G2743 (retired record),SID104180738,75.6,174,,
bai (GeneID 42996),SID104194180,174,125,,
CG42369 (GeneID 33894),SID104183036,96.3,82.4,,
CG7737 (GeneID 36174),SID104186825,121,113,,
CG43759 (GeneID 32889),SID104199256,162,148,,
CG43759 (GeneID 32889),SID104199335,59 (active),107,,
Pglym78 (GeneID 43447),SID104196579,89,106,,
CG31189 (GeneID 42487),SID104195990,188,133,,
Gyc89Db (GeneID 42002),SID104194801,155,208,,
CG5080 (GeneID 33299),SID104180469,136,259,,
Trf2 (GeneID 31773),SID104198519,162 (active),98.2,,
hbn (GeneID 47894),SID104183874,65.2,135,,
hbn (GeneID 47894),SID104184030,71.3,159,116,165
hbn (GeneID 47894),SID104184031,58.9,184,,
hbn (GeneID 47894),SID104201907,141,234,,
Surf4 (GeneID 41864),SID104196667,154,199,,
lncRNA:mimi (GeneID 12798523),SID104201176,159,97.9,,
Sgt1 (GeneID 40982),SID104196311,89.3,189,,
CG6830 (GeneID 41408),SID104195916,151,108,,
CG11842 (GeneID 43431),SID104194192,58.4 (active),98.1,,
CG32832 (GeneID 318237),SID104181354,64.7 (active),97.8,,
ChT (GeneID 42245),SID104196088,102,151,,
zen (GeneID 40828),SID104192424,126,175,,
CG14070 (GeneID 34508),SID104182165,120,188,,
Octbeta2R (GeneID 41549),SID104195142,193,111,,
Octbeta2R (GeneID 41549),SID104195957,170,98.4,,
Ugt35E2 (GeneID 53506),SID104195875,63.9 (active),88.4,,
nod (GeneID 32107),SID104200148,131,102,,
run (GeneID 33059),SID104200376,235,142,,
run (GeneID 33059),SID104201236,158,136,,
jim (GeneID 43924),SID104191681,155,76.1,,
CG10283 (GeneID 35102),SID104181826,92.7,91.6,,
blot (GeneID 39939),SID104191120,113,79,,
Pebp1 (GeneID 42644),SID104195146,142,129,,
CG14445 (GeneID 31556),SID104197730,296,79.3,,
CG13299 (GeneID 38724),SID104189765,117,92.1,,
CG5968 (GeneID 34986),SID104182708,96,114,,
U3-55K (GeneID 3346176),SID104185774,148,235,,
SP (GeneID 39494),SID104189456,84.2,112,,
Nulp1 (GeneID 38897),SID104189469,94.1,116,,
Gpdh2 (GeneID 37672),SID104184138,95.5,229,,
fbp (GeneID 35265),SID104181869,127,105,,
sing + Axs,SID104199125,102,113,,
CG14442 (GeneID 31609),SID104197727,180,100,,
fd96Cb (GeneID 43011),SID104196739,248,129,,
RpL10Ab (GeneID 39338),SID104190590,54.6 (active),43.2,,
Cyp305a1 (GeneID 40161),SID104190918,111,111,,
Rsph9 (GeneID 318950),SID104181386,235,87.9,,
lola (GeneID 44548),SID104185012,77.7,111,,
lola (GeneID 44548),SID104185013,72.6,112,,
lola (GeneID 44548),SID104185014,74.8,93.7,,
lola (GeneID 44548),SID104185015,77,102,,
lola (GeneID 44548),SID104185016,95.3,141,,
lola (GeneID 44548),SID104186530,153,130,,
lola (GeneID 44548),SID104186531,133,137,,
lola (GeneID 44548),SID104186532,159,97.2,,
lola (GeneID 44548),SID104186533,129,166,,
lola (GeneID 44548),SID104186534,144,183,,
lola (GeneID 44548),SID104187438,194,98.2,,
lola (GeneID 44548),SID104187439,94.9,142,,
Uev1A (GeneID 38613),SID104189555,88.1,76.9,,
CG32750 (GeneID 326238),SID104198640,217,91.2,,
ru (GeneID 44856),SID104188050,107,139,,
Cpr (GeneID 33883),SID104183085,111,205,,
gdl-ORF39 + gdl,SID104191142,98.4,151,,
cav (GeneID 42881),SID104195787,203,206,,
SLIRP2 (GeneID 41021),SID104196155,136,186,,
CkIIbeta (GeneID 32132),SID104200022,95.5,79.7,,
Qsox4 (GeneID 318720),SID104194016,216,244,,
elm (GeneID 40695),SID104192101,169,174,,
sle + CG12592,SID104201153,113,96.2,,
